For the test, the target named is PVRIG (Poliovirus Receptor Related Immunoglobulin Domain Containing Protein) (human) (UniProt Q6DKI7). The test is described as follows: description in Example 2; no assay given.

The chains behind the UniProt entries cited, without tags or fusion partners. Where a name states a change or a piece, a line headed by the entry shows the natural chain unless it says otherwise. Residues count along the entry.
UniProt Q6DKI7, 41-171: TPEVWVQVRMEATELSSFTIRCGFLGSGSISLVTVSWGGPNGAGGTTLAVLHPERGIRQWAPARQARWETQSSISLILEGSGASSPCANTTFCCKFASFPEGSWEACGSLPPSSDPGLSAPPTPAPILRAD

These are yes or no findings as the source states them, for the method shown. Some results given as binding are weak or reduced against the parent protein; the word gives no strength.

B1: CHA.7.518.1.H4(S241P) (antibody, human IgG4 S228P, kappa, V domains shown)
VH: QVQLVQSGAEVKKPGASVKVSCKASGYTFTDYNINWVRQAPGQGLEWMGYIYPYIGGSGYAQKFQGRVTMTRDTSTSTVYMELSSLRSEDTAVYYCAREDKTARNAMDYWGQGTLVTVSS
VL: DIQMTQSPSSLSASVGDRVTITCRVSENIYSNLAWYQQKPGKAPKLLIYEATNLAEGVPSRFSGSGSGTDFTLTISSLQPEDFATYYCQHFWGTPYTFGQGTKLEIKR
For B1, the binding entry was “binds”.

(Values after patent US20250382364A1.)
